Where a name gives a salt, the structure may show the parent alone. The list shows a part of the results. No stated cut-off is given here; in the data, active = 0.5 or less and inactive = the rest. Repeats are few or missing, and single values can be far off.
tested on: SK-MEL-28; assay: EEF2K protein level normalised to actin (western blot) after treatment (ratio (EEF2K/Actin)); higher = more EEF2K protein remaining (less EEF2K suppression); details: 5 µM; 24 h

Row | Compound | EEF2K protein level normalised to actin
1 | COc1cccc2c1C(=O)c1c(O)c3c(c(O)c1C2=O)C[C@@](O)(C(C)=O)C[C@@H]3O[C@H]1C[C@H](N)[C@H](O)[C@H](C)O1 [Daunorubicin HCl] | active: 0.11
2 | CN(C)CCN1C(=O)c2cccc3cc(N)cc(c23)C1=O [Amonafide] | inactive: 0.78
3 | COc1cc2/c(=N/c3ccc(Br)cc3F)nc[nH]c2cc1OCC1CCN(C)CC1 [Vandetanib (ZD6474)] | inactive: 1.67
4 | Cn1cnc2c(F)c(Nc3ccc(Br)cc3F)c(C(=O)NOCCO)cc21 | inactive: 2.57
5 | CC[C@@]1(O)C(=O)OCc2c1cc1n(c2=O)Cc2cc3c(CN(C)C)c(O)ccc3nc2-1 [Topotecan HCl] | inactive: 5.93
6 | CNC(=O)c1ccc(N2C(=S)N(c3ccc(C#N)c(C(F)(F)F)c3)C(=O)C2(C)C)cc1F [Enzalutamide (MDV3100)] | inactive: 1.56
7 | O=C(O)C(=O)O.[NH-][C@@H]1CCCC[C@H]1[NH-].[Pt+2] [Oxaliplatin] | inactive: 1.84
8 | COc1cc2nccc(Oc3ccc(NC(=O)NC4CC4)c(Cl)c3)c2cc1C(N)=O [Lenvatinib (E7080)] | inactive: 1.94
9 | CCc1cc2c(cc1N1CCC(N3CCOCC3)CC1)C(C)(C)c1[nH]c3cc(C#N)ccc3c1C2=O | inactive: 0.83
10 | O=C(O)C1CSCN1 (stereo unspecified) [Timonacic] | inactive: 0.87
11 | CC(=O)Oc1ccccc1C(=O)O [Aspirin] | inactive: 0.69
12 | Cc1ccc(Nc2nccc(N(C)c3ccc4c(C)n(C)nc4c3)n2)cc1S(N)(=O)=O | inactive: 0.75
13 | N[C@@H]1CN(c2c(F)cc3c(=O)c(C(=O)O)cn([C@@H]4C[C@@H]4F)c3c2Cl)CC12CC2 [Sitafloxacin Hydrate] | inactive: 1.31
14 | CC(=O)Nc1cccc(-n2c(=O)n(C3CC3)c(=O)c3c(Nc4ccc(I)cc4F)n(C)c(=O)c(C)c32)c1 | inactive: 1.3
15 | CCN(CC)CCNC(=O)c1c(C)[nH]c(/C=C2\C(=O)Nc3ccc(F)cc32)c1C [Sunitinib Malate] | inactive: 1.5
16 | Cc1nc(Nc2ncc(C(=O)Nc3c(C)cccc3Cl)s2)cc(N2CCN(CCO)CC2)n1 [Dasatinib] | inactive: 1
17 | COC(=O)c1ccc2c(C(=Nc3ccc(N(C)C(=O)CN4CCN(C)CC4)cc3)c3ccccc3)c(O)[nH]c2c1 [Nintedanib Ethanesulfonate Salt] | inactive: 0.59
18 | CNC(=O)c1cc(Oc2ccc(NC(=O)Nc3ccc(Cl)c(C(F)(F)F)c3)c(F)c2)ccn1 [Regorafenib (BAY 73-4506)] | inactive: 3.52

From no. 10 to 11, copied from above:
Row | Compound | EEF2K protein level normalised to actin
10 | O=C(O)C1CSCN1 (stereo unspecified) [Timonacic] | inactive: 0.87
11 | CC(=O)Oc1ccccc1C(=O)O [Aspirin] | inactive: 0.69

Remaining list, next part

Row | Compound | EEF2K protein level normalised to actin
19 | COc1cc([C@@H]2c3cc4c(cc3[C@@H](O[C@@H]3O[C@@H]5CO[C@@H](C)O[C@H]5[C@H](O)[C@H]3O)[C@H]3COC(=O)[C@H]23)OCO4)cc(OC)c1O [Etoposide] | inactive: 0.77
20 | COc1ccc2cc1Oc1ccc(cc1)C[C@H]1c3cc(c(OC)cc3CCN1C)Oc1c(O)c(OC)cc3c1[C@H](C2)N(C)CC3 [(+)-Fangchinoline] | inactive: 0.71
21 | O=S(=O)(O)CCS [Mesna] | inactive: 0.55
22 | CC[C@@]1(O)C(=O)OCc2c1cc1n(c2=O)Cc2cc3cc(O)ccc3nc2-1 [(S)-10-Hydroxycamptothecin] | inactive: 0.54
23 | CC(C)c1nc(CN(C)C(=O)N[C@@H](CCN2CCOCC2)C(=O)N[C@H](CC[C@H](Cc2ccccc2)NC(=O)OCc2cncs2)Cc2ccccc2)cs1 [Cobicistat (GS-9350)] | inactive: 0.81
24 | CNNCc1ccc(C(=O)NC(C)C)cc1 [Procarbazine HCl] | inactive: 0.64
25 | CC1(C)CCC(C)(C)c2cc(NC(=O)c3ccc(C(=O)O)cc3)ccc21 [Tamibarotene] | inactive: 1.19
26 | CN(C)C(=O)c1cc2cnc(Nc3ccc(N4CCNCC4)cn3)nc2n1C1CCCC1 [Ribociclib (LEE011)] | inactive: 1.85
27 | CC[C@H](c1ccc(O)cc1)[C@@H](CC)c1ccc(O)cc1 [Hexestrol] | inactive: 2.38
28 | Cc1cccc(N(C)C(=S)Oc2ccc3ccccc3c2)c1 [Tolnaftate] | inactive: 3.55
29 | CCCCNC(=O)NS(=O)(=O)c1ccc(C)cc1 [Tolbutamide] | inactive: 1.8
30 | CC[C@H](Nc1ncnc2[nH]cnc12)c1nc2cccc(F)c2c(=O)n1-c1ccccc1 [Idelalisib (CAL-101, GS-1101)] | inactive: 2.28
31 | Nc1nc(F)nc2c1ncn2[C@@H]1O[C@H](CO)[C@@H](O)[C@@H]1O [Fludarabine] | active: 0.15
32 | CN(C)/N=N/c1[nH]cnc1C(N)=O [Dacarbazine] | inactive: 0.73
33 | CCCS(=O)(=O)Nc1ccc(F)c(C(=O)c2c[nH]c3ncc(-c4ccc(Cl)cc4)cc23)c1F [Vemurafenib (PLX4032, RG7204)] | inactive: 1.24
34 | CCOc1cc2ncc(C#N)c(Nc3ccc(OCc4ccccn4)c(Cl)c3)c2cc1NC(=O)/C=C/CN(C)C [Neratinib (HKI-272)] | inactive: 1.77
35 | Cc1ccc(NC(=O)c2ccc(CN3CCN(C)CC3)cc2)cc1Nc1nccc(-c2cccnc2)n1 [Imatinib Mesylate (STI571)] | inactive: 0.65
36 | CCOC(=O)c1ccc(OC(=O)CCCCCNC(=N)N)cc1 [Gabexate Mesylate] | inactive: 1.18

From the supplement of paper PMC8858631
